Reference: patent US20130059324A1, “SYSTEMS AND METHODS FOR MECHANICALLY STRAINED CELL CULTURE” (THE UNIVERSITY OF KANSAS, priority 2010, published 2013)

Test system: NCI-H358 cells
Experiment: Drug exposure with or without simulated forces, 6-well Bioflex plates, live cell count and exponential growth model
Type: cell-based, human
Set-up: key: ↑: Up arrow indicates the statistically significant increase; ↓: down arrow indicates the decrease; horizontal arrows indicate no change in growth rates
Settings: for Change in Growth Rate: with versus without forces, drug at IC90
Excerpt: Treatments 1, 2 and 3 served as unstretched controls for Treatments 4, 5 and 6, respectively. For each cell line and drug, all treatments were independently repeated at least 3 times on different days, with 3 replicates per Treatments 1 and 4 (n=9) and 5 replicates per all other treatments (n=15).
The NCI-H358 (ATCC® CRL-5807) and A549 (ATCC® CCL-185) cell lines were obtained from American Type Culture Collection (ATCC, Manassas, Va.) and cultured in RPMI-1640 (NCI-H358) and HAM's F12K (A549) media containing 10% Fetal Bovine Serum (Sigma Aldrich, St. Louis, Mo.) and 1% Penicillin Streptomycin (Sigma Aldrich). Cells were passaged in 75 cm2 culture flasks at 37° C. in 5% CO2, and trypsinized using TryplE™ Express (Gibco) containing phenol red.
Cells were plated in 6-well Bioflex® plates (Flexcell® International Corporation, Hillsborough, N.C.). Each well of the plate has a flexible elastic membrane coated with a thin layer of type I collagen. Type I collagen was chosen since it more accurately represents the physiology of lung tumor cells in vivo. The Flexcell is not configured for drug studies as described herein, and had to be modified as described herein. […] Therefore, to have the same number of cells in culture at the time of drug exposure, initial seeding densities for treatments not involving simulated forces (Treatments 1-3) and those involving forces (Treatments 4-6) were adjusted for each cell line. In Treatments 1, 2 and 3, NCI-H358 and A549 cells were plated at a density of 100,000 and 20,000 cells/well in 2 ml of corresponding media, respectively. For treatments involving simulated forces (Treatments 4-6), NCI-H358 and A549 cells were plated at a density of 170,000 and 35,000 cells/well, respectively.
After allowing the cells to adhere to the membrane for 24 hours, the plates assigned for simulated forces were stretched using the FX-4000 Tension plus unit (Flexcell® International Corporation, Hillsborough, N.C.). The Flexcell unit was configured to deliver an alternating positive and negative pressure beneath the cell culture surfaces. Negative pressure pulls the culture surface down over a stationary Delrin post on the baseplate, delivering a uniform biaxial strain to the cells, and subsequent application of positive pressure releases this distension (FIGS. 9A and 9B.) In this manner, the alternating positive and negative pressure simulates forces experienced during respiration. Culture plates experiencing forces were fitted with rubber gaskets and placed on circular loading stations in the baseplate. […] Cells were preconditioned with mechanical forces for 48 hours, in an incubator at 37° C., 5% CO2 and 95% relative humidity.
After 72 hours of initial seeding, one of the five drugs was added to Treatments 3 and 6 of each cell line. […] The IC90, concentration of the drug that inhibits the growth of 90% of the cells in a static monolayer culture, was used to assure a significant inhibition in the absence of simulated forces. To insure comparability, an aliquot of 1 ml of media without the drug was added to each well in Treatments 2 and 5. After adding the drug or 1 ml of media, the plates from Treatments 5 and 6 were placed back on the baseplate and subjected to the same force profile as before for the remaining 72 hours. […]
Cells were trypsinized and counted at the end of day 3 in Treatments 1 and 4, and at the end of day 6 in the other treatments, using a Beckman Coulter Vi-Cell Analyzer (Beckman Coulter, Fullerton, Calif.). […]

Row | Structure (SMILES) | Change in Growth Rate | Change in effectiveness due to forces (Ef versus E)
1 | N.N.[Cl][Pt][Cl] [Cisplatin] | ↓ | 
2 | COc1cccc2c1C(=O)c1c(O)c3c(c(O)c1C2=O)C[C@@](O)(C(=O)CO)C[C@@H]3O[C@H]1C[C@H](N)[C@H](O)[C@H](C)O1 [Doxorubicin] | ↓ | 
3 | CC(=O)O[C@H]1C(=O)[C@@]2(C)[C@H]([C@H](OC(=O)c3ccccc3)[C@]3(O)C[C@H](OC(=O)[C@H](O)[C@@H](NC(=O)c4ccccc4)c4ccccc4)C(C)=C1C3(C)C)[C@]1(OC(C)=O)CO[C@@H]1C[C@@H]2O [Paclitaxel] | ↓ | 
4 | COc1cc2c(Nc3ccc(Br)cc3F)ncnc2cc1OCC1CCN(C)CC1 [Zactima] | ↓ | ↑
